These are yes or no findings as the source states them, for the method shown. Binding seen in cells or lysates may run through a third protein. Some results given as binding are weak or reduced against the parent protein; the word gives no strength.
Legend:
[1] = molecular target: COMP in cell extracts of isolated human chondrocytes (human) (UniProt P49747); assay: co-immunoprecipitation from human chondrocyte extracts (FIG. 3C)
[2] = molecular target: COMP in cell extracts of isolated human chondrocytes (human) (UniProt P49747); assay: co-immunoprecipitation from human chondrocyte extracts, anti-COMP antiserum, immunoblot with anti-GEP

Protein sequences, listed by entry. Tags and fused reporters are not part of them. Residues count along the entry.
UniProt P49747, residues 21-757: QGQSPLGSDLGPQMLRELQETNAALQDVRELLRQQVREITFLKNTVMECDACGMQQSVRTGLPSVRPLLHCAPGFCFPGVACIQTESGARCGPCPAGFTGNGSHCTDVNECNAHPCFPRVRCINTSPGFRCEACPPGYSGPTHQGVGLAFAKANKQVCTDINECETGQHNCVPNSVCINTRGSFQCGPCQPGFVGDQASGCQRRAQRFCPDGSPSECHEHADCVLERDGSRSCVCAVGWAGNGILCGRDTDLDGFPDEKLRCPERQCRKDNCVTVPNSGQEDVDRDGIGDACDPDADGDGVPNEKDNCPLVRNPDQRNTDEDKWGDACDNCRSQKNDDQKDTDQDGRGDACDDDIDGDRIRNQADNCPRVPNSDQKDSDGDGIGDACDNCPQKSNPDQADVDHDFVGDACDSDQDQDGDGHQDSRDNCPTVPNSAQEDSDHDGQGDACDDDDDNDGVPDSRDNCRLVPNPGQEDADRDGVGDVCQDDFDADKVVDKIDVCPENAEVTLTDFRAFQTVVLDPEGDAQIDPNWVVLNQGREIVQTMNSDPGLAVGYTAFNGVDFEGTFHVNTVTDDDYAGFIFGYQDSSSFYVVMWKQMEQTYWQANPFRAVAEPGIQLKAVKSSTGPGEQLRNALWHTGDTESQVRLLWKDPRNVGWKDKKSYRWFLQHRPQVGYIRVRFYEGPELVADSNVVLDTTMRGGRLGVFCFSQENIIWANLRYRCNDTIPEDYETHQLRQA
UniProt P28799, residues 18-593: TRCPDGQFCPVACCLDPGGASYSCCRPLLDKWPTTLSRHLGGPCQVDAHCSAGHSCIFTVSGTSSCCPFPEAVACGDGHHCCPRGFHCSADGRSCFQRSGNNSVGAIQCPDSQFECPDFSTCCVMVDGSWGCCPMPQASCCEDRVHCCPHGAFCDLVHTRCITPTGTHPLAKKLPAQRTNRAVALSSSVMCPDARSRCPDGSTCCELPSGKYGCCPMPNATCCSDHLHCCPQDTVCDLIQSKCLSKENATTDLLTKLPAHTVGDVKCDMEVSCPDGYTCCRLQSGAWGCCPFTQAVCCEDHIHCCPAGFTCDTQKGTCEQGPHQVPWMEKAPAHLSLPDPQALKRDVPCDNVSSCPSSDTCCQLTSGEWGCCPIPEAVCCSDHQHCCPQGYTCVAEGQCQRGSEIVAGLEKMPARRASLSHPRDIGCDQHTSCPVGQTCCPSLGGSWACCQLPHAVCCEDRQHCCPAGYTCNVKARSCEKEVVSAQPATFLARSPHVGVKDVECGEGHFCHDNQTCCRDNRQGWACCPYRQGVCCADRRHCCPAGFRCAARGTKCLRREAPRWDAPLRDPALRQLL

Substance: GEP in cell extracts of isolated human chondrocytes (from UniProt P28799 18-593) (ligand)
- binding [1]: binds
- binding [2]: binds

— US20090226370A1
